Reference: the supplement of paper PMC10849652
The list shows a part of the results.

Protein sequences, listed by entry. Tags and fused reporters are not part of them. Lines headed by an entry give the natural chain unless they say otherwise; changes in a name come on top.
UniProt Q86W74: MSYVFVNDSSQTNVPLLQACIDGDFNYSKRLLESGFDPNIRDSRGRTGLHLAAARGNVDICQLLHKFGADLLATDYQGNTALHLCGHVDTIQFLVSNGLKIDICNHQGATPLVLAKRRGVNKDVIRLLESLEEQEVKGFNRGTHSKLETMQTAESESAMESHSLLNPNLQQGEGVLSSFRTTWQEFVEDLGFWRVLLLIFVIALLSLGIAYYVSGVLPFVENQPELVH
UniProt P07355, whole entry, looked up: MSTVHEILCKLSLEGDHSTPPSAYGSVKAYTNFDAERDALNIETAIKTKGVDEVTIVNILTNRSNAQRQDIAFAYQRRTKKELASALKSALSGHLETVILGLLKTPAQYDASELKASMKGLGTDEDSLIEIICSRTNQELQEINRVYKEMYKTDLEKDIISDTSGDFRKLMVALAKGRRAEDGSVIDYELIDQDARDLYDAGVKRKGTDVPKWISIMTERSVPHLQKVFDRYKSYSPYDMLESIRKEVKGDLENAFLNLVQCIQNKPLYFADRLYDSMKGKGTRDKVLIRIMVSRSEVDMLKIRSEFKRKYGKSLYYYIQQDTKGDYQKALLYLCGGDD
UniProt Q68EM7: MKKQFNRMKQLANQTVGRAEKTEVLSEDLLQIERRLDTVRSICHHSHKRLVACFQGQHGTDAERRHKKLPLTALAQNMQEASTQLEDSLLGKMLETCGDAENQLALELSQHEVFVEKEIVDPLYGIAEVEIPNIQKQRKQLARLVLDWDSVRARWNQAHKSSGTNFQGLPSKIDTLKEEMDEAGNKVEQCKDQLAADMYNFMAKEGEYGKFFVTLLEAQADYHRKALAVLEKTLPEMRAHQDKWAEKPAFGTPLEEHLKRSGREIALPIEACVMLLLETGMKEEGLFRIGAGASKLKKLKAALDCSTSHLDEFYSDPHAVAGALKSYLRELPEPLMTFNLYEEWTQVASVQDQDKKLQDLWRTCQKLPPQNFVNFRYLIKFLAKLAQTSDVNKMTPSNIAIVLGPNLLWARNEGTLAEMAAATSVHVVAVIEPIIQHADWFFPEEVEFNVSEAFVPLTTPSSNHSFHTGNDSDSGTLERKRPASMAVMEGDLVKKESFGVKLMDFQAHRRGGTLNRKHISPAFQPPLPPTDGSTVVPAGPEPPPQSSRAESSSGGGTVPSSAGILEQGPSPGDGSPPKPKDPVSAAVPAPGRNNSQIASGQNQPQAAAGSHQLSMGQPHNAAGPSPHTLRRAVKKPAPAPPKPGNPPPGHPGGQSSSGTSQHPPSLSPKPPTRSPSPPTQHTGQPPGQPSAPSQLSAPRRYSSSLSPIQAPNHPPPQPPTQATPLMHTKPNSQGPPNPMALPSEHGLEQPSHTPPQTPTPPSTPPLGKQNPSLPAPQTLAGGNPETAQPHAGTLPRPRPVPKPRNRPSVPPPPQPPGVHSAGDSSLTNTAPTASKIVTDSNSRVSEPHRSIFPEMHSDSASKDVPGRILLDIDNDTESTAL
UniProt Q9BZZ5: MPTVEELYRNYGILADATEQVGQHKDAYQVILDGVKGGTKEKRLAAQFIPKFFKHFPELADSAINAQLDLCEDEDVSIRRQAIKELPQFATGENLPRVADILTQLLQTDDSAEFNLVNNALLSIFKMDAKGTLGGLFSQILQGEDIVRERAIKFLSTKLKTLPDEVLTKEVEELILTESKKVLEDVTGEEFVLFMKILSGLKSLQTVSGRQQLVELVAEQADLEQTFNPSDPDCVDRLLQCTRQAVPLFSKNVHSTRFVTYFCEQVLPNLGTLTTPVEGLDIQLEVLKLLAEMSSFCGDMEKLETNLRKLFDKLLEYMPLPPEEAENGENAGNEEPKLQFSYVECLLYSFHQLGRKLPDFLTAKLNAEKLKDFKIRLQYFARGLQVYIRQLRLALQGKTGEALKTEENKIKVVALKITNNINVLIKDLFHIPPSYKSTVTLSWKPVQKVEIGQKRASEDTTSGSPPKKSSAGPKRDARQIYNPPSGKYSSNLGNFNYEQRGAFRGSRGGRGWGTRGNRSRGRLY
UniProt Q9Y6B7: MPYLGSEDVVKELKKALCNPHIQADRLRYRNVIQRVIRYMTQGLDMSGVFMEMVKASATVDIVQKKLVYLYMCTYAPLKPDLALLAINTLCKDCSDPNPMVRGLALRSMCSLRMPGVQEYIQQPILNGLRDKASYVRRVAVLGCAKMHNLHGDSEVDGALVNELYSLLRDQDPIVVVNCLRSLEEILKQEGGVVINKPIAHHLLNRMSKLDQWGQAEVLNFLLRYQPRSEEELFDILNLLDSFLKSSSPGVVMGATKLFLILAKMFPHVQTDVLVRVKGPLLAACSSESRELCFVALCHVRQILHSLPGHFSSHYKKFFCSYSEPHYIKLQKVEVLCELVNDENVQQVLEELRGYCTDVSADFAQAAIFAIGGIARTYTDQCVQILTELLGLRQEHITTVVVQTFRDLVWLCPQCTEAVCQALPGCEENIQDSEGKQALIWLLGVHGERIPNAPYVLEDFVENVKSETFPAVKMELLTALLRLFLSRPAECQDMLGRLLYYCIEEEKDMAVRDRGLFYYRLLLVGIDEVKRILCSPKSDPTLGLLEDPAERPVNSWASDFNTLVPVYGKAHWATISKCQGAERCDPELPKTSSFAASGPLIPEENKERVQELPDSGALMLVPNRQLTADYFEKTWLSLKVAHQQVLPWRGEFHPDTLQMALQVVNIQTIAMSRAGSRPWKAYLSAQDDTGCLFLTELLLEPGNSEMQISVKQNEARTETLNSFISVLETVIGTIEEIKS
UniProt P52566: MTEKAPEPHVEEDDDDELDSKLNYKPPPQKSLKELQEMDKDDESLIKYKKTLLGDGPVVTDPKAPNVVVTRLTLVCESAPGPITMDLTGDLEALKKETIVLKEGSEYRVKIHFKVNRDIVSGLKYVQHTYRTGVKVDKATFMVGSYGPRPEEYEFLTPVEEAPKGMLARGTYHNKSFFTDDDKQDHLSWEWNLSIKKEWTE
UniProt Q9UJX4, whole entry, looked up: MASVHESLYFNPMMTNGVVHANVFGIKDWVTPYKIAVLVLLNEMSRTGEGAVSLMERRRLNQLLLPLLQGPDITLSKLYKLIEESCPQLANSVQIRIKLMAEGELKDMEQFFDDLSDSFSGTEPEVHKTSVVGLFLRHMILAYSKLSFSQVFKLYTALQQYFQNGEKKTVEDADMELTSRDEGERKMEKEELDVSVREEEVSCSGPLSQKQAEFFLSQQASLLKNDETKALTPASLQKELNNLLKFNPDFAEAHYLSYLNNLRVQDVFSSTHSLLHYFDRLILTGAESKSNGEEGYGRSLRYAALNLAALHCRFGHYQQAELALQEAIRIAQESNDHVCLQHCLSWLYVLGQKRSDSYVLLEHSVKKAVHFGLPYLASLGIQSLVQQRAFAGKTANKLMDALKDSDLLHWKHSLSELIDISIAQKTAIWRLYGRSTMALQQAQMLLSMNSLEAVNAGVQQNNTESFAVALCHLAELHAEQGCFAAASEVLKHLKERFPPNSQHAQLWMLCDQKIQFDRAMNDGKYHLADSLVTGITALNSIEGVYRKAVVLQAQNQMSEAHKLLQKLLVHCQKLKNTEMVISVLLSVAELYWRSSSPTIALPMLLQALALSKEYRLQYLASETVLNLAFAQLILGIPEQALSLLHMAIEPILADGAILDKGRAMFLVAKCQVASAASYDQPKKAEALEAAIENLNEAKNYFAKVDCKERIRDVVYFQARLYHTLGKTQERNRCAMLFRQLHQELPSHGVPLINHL
UniProt Q9Y2T2: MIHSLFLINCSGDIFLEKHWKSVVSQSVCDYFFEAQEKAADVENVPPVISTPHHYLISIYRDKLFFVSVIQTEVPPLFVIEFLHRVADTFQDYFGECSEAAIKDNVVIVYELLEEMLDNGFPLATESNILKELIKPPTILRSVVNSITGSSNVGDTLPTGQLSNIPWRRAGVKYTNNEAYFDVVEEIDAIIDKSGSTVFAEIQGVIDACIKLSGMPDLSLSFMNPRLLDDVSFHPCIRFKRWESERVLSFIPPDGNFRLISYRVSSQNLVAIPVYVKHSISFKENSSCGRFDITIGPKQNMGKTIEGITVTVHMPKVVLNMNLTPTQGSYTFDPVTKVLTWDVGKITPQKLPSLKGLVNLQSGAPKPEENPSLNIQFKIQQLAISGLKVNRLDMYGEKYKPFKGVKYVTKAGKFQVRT
UniProt Q96AK3: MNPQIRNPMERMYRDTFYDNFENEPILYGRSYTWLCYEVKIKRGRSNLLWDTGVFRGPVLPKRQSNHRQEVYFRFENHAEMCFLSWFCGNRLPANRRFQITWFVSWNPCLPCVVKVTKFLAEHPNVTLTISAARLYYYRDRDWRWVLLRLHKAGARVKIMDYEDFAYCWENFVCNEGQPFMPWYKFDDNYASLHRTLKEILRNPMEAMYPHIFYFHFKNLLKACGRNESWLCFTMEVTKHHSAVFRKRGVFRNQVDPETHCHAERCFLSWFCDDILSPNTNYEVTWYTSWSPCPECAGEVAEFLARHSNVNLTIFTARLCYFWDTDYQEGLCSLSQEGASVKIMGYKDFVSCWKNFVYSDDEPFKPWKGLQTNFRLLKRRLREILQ
UniProt P58335, whole entry, looked up: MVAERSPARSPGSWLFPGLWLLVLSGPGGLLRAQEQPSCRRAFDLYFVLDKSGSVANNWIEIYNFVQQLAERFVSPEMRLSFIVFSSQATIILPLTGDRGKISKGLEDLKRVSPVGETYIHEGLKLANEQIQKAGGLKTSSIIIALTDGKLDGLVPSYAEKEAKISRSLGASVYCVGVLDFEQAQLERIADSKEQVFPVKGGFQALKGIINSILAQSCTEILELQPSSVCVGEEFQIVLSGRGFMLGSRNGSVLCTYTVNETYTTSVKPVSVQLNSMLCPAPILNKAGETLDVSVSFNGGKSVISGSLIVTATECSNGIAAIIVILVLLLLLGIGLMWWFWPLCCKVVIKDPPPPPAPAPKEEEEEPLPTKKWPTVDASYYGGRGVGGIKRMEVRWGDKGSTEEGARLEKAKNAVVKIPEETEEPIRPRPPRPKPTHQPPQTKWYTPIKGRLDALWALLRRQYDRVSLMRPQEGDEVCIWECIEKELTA
UniProt Q92974: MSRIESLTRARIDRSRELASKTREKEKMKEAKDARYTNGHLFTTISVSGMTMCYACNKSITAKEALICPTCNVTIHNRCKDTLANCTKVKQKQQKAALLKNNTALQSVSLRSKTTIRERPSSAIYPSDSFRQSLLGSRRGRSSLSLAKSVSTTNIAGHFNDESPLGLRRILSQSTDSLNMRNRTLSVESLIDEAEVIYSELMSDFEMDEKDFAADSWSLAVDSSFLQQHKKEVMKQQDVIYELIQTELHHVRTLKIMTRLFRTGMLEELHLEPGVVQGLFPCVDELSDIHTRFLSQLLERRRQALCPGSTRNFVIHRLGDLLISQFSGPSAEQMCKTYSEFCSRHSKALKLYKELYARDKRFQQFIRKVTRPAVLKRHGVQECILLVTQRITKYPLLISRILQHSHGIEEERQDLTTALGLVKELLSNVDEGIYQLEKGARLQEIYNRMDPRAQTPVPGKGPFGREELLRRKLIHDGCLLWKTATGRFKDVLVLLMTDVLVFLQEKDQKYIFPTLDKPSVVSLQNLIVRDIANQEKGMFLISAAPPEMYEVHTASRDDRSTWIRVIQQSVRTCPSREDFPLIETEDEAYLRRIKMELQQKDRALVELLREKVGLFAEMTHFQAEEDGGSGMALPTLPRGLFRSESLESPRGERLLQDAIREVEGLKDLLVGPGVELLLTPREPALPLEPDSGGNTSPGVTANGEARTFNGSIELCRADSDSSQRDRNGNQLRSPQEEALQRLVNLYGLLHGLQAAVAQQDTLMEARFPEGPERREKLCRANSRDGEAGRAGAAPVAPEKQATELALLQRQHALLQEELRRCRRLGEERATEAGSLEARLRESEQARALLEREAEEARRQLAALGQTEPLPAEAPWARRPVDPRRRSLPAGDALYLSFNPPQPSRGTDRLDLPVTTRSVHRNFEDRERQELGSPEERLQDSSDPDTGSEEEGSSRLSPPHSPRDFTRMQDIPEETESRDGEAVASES
UniProt Q92688: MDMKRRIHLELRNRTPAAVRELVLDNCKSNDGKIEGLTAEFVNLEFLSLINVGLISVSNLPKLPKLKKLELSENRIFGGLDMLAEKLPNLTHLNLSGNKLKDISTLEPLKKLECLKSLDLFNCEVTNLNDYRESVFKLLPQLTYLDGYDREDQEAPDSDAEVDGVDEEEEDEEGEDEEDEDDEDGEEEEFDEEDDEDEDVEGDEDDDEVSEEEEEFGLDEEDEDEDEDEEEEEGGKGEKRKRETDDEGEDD
UniProt P84085: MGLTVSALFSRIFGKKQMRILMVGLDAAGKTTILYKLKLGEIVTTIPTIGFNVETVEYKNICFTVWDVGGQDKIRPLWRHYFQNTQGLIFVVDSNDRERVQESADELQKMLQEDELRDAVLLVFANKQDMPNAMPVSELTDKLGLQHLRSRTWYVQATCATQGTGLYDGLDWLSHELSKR

Assays:
Assay in all cases: log2 fold change, soluble protein after heating vs DMSO (PISA); higher = thermal stabilisation; K562 cells, 10 uM, 30 min; active = over 0.2 and 3.5 SD of the protein, either way, in both replicates (recomputed)
[1] = compound: CN1CCN(CCOc2cc(OC3CCOCC3)c3c(Nc4c(Cl)ccc5c4OCO5)ncnc3c2)CC1 [saracatinib]
Outline: (§1)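 K562 cells at 2×10^6 cells/mL were exposed to 10 μM compound for 30 min, then aliquots were heated for 3 min across 48°C-58°C, pooled, and extracted in PBS containing 0.5% NP-40 at 4°C. The supernatant after 21,000xg for 90 min was taken as soluble protein and measured by TMTpro 16plex LC-MS/MS with channel sums equalised. Thermal stability is reported relative to control samples, with values from duplicates. Fold changes are given on a log2 scale.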

[2] = compound: CN1CCN(c2nc(C3=C(c4c[nH]c5ccccc45)C(=O)NC3=O)c3ccccc3n2)CC1 [sotrastaurin]
Outline: as §1

[3] = compound: CN1CC[C@H](c2c(O)cc(O)c3c(=O)cc(-c4ccccc4Cl)oc23)[C@H](O)C1 [alvocidib]
Outline: as §1

[4] = compound: CN1CCc2c(c3ccccc3n2Cc2ccc(C(=O)NO)cc2)C1 [Tubastatin A]
Outline: as §1

[5] = compound: CNC(=O)C1=CC=CC=C1NC2=NC(=NC=C2Cl)NC3=C(C=C(C=C3)N4CCOCC4)OC
Outline: as §1

[6] = compound: CNC(=O)c1ccc(Nc2ncc(C(F)(F)F)c(NCc3nccnc3N(C)S(C)(=O)=O)n2)cc1 [defactinib]
Outline: as §1

[7] = compound: CNCc1ccc(-c2[nH]c3cc(F)cc4c3c2CCNC4=O)cc1 [rucaparib]
Outline: as §1

[8] = compound: CNc1nc(-c2ccc3c(N)n[nH]c3c2)cc(N2C[C@@H](C(=O)NC3CCCCC3)CC[C@H]2C)n1
Outline: as §1

[9] = compound: COC(=O)N[C@@H](C)CNc1nccc(-c2cn(C(C)C)nc2-c2cc(Cl)cc(NS(C)(=O)=O)c2F)n1 [encorafenib]
Outline: as §1

[10] = compound: COC(=O)[C@H](CCSC)NC(=O)C1=C(C=C(C=C1)NC[C@H](CS)N)C2=CC=CC=C2
Outline: as §1

Measured: log2 fold change

APOOL (UniProt Q6UXV4)
inactive: [1] 0.056 | [2] 0.035 | [3] 0.041 | [4] -0.019 | [5] 0.003 | [6] -0.011 | [7] 0.023 | [8] -0.03 | [9] -0.007 | [10] 0.029

ANO6 isoform 2 (UniProt Q4KMQ2)
inactive: [1] 0.088 | [2] -0.015 | [3] -0.027 | [4] -0.017 | [5] -0.043 | [6] -0.017 | [7] -0.011 | [8] 0.03 | [9] -0.002 | [10] -0.008

ARG2 (UniProt P78540)
inactive: [1] 0.079 | [2] 0.035 | [3] -0.002 | [4] -0.026 | [5] -0.032 | [6] -0.006 | [7] -0.046 | [8] -0.062 | [9] -0.059 | [10] -0.014

ARIH1 (UniProt Q9Y4X5)
inactive: [1] 0.055 | [2] 0.058 | [3] 0.011 | [4] -0.039 | [5] 0.001 | [6] 0.001 | [7] -0.023 | [8] -0.018 | [9] -0.007 | [10] 0.022

ARFGAP3 (UniProt Q9NP61)
inactive: [1] -0.027 | [2] -0.019 | [3] -0.108 | [4] 0.012 | [5] -0.012 | [6] -0.056 | [7] -0.012 | [8] -0.038 | [9] -0.026 | [10] 0.013

APIP (UniProt Q96GX9)
inactive: [1] 0.039 | [2] 0.009 | [3] 0.034 | [4] -0.011 | [5] -0.012 | [6] -0.013 | [7] -0.069 | [8] -0.047 | [9] 0.018 | [10] 0.049

ANKRD46 (UniProt Q86W74)
inactive: [1] -0.05 | [2] -0.011 | [3] 0.141 | [4] 0.152 | [5] 0.052 | [6] -0.052 | [7] -0.179 | [8] -0.104 | [9] 0.098 | [10] 0.063

ANXA2 isoform 2 (UniProt P07355)
inactive: [1] 0.01 | [2] -0.057 | [3] -0.089 | [4] -0.02 | [5] 0.021 | [6] -0.026 | [7] -0.1 | [8] 0.011 | [9] 0.015 | [10] -0.014

ARHGAP17 (UniProt Q68EM7)
inactive: [1] -0.245 | [2] -0.2 | [3] -0.029 | [4] 0.074 | [5] 0 | [6] 0.017 | [7] 0.129 | [8] 0.009 | [9] 0.198 | [10] -0.005

ANKRD17 (UniProt O75179)
inactive: [1] -0.123 | [2] -0.136 | [3] -0.016 | [4] 0.024 | [5] 0.002 | [6] 0 | [7] 0.235 | [8] 0.031 | [9] 0.034 | [10] 0.021

ANTKMT (UniProt Q9BQD7)
inactive: [1] 0.016 | [2] 0.066 | [3] -0.037 | [4] -0.149 | [5] -0.158 | [6] -0.164 | [7] 0.153 | [8] -0.004 | [9] -0.061 | [10] -0.016

ANXA7 (UniProt P20073)
inactive: [1] 0.013 | [2] -0.024 | [3] -0.064 | [4] -0.004 | [5] 0.106 | [6] -0.043 | [7] 0.008 | [8] -0.034 | [9] -0.004 | [10] -0.014

API5 (UniProt Q9BZZ5)
inactive: [1] 0.018 | [2] -0.001 | [3] -0.046 | [4] -0.015 | [5] -0.029 | [6] -0.019 | [7] -0.081 | [8] -0.049 | [9] 0.011 | [10] -0.002

AP4B1 (UniProt Q9Y6B7)
inactive: [1] 0.022 | [2] -0.343 | [3] -0.158 | [4] 0.113 | [5] -0.054 | [6] -0.052 | [7] 0.091 | [8] 0.24 | [9] 0.297 | [10] -0.027

ARID1A (UniProt O14497)
inactive: [1] -0.088 | [2] -0.103 | [3] -0.042 | [4] 0.189 | [5] 0.054 | [6] -0.168 | [7] -0.158 | [8] 0.092 | [9] 0.07 | [10] -0.079

ARHGDIB (UniProt P52566)
inactive: [1] -0.038 | [2] 0.032 | [3] -0.054 | [4] 0.001 | [5] -0.037 | [6] 0 | [7] -0.041 | [8] -0.02 | [9] 0.029 | [10] 0.013

ANAPC5 (UniProt Q9UJX4)
inactive: [1] -0.062 | [2] -0.019 | [3] -0.019 | [4] 0.037 | [5] 0.067 | [6] -0.013 | [7] -0.001 | [8] -0.015 | [9] 0.055 | [10] -0.005

AP3M1 (UniProt Q9Y2T2)
inactive: [1] 0.003 | [2] 0.024 | [3] -0.01 | [4] 0.034 | [5] 0.013 | [6] -0.037 | [7] 0.029 | [8] 0.037 | [9] 0.077 | [10] -0.007

ANKMY2 (UniProt Q8IV38)
inactive: [1] -0.03 | [2] -0.061 | [3] -0.041 | [4] 0.046 | [5] 0.011 | [6] -0.038 | [7] -0.051 | [8] -0.015 | [9] 0.035 | [10] -0.025

Two successive records out of the list so far, quoted:
ARIH1 (UniProt Q9Y4X5)
inactive: [1] 0.055 | [2] 0.058 | [3] 0.011 | [4] -0.039 | [5] 0.001 | [6] 0.001 | [7] -0.023 | [8] -0.018 | [9] -0.007 | [10] 0.022

ARFGAP3 (UniProt Q9NP61)
inactive: [1] -0.027 | [2] -0.019 | [3] -0.108 | [4] 0.012 | [5] -0.012 | [6] -0.056 | [7] -0.012 | [8] -0.038 | [9] -0.026 | [10] 0.013

Remaining list, next part:

APOE (UniProt P02649)
inactive: [1] 0.023 | [2] 0.07 | [3] -0.031 | [4] -0.043 | [5] 0.12 | [6] 0.079 | [7] -0.048 | [8] 0 | [9] -0.035 | [10] -0.022

AP1G1 isoform 2 (UniProt O43747)
inactive: [1] 0 | [2] -0.126 | [3] -0.051 | [4] 0.032 | [5] 0.012 | [6] -0.047 | [7] 0.064 | [8] 0.049 | [9] 0.051 | [10] -0.086

APOBEC3D (UniProt Q96AK3)
inactive: [1] -0.022 | [2] 0.05 | [3] 0.176 | [4] 0.104 | [5] 0.052 | [6] 0.302 | [7] 0.302 | [8] 0.064 | [9] 0.156 | [10] 0.042

ANTXR2 isoform 4 (UniProt P58335)
inactive: [1] -0.01 | [2] 0.046 | [3] -0.008 | [4] 0.009 | [5] -0.01 | [6] 0.007 | [7] -0.045 | [8] -0.053 | [9] 0.024 | [10] 0.03

ANGPTL3 (UniProt Q9Y5C1)
inactive: [1] -0.01 | [2] -0.007 | [3] -0.063 | [4] -0.019 | [5] 0.282 | [6] -0.026 | [7] 0.002 | [8] 0.13 | [9] -0.036 | [10] -0.003

ANAPC4 isoform 3 (UniProt Q9UJX5)
inactive: [1] 0.017 | [2] -0.05 | [3] -0.061 | [4] 0.004 | [5] 0.011 | [6] -0.009 | [7] 0.03 | [8] -0.008 | [9] 0.012 | [10] -0.013

ARHGEF2 (UniProt Q92974)
inactive: [1] -0.11 | [2] -0.101 | [3] 0.227 | [4] 0.122 | [5] -0.223 | [6] 0.249 | [7] 0.519 | [8] 0.179 | [9] 0.23 | [10] -0.01

ANP32B (UniProt Q92688)
inactive: [1] 0.002 | [2] 0.036 | [3] -0.092 | [4] -0.004 | [5] 0.12 | [6] -0.115 | [7] -0.119 | [8] -0.046 | [9] 0.006 | [10] 0.003

ARHGAP12 (UniProt Q8IWW6)
inactive: [1] -0.015 | [2] 0.047 | [3] 0.057 | [4] 0.176 | [5] 0.03 | [6] 0.005 | [7] 0.133 | [8] 0.046 | [9] -0.061 | [10] 0.01

ARF5 (UniProt P84085)
inactive: [1] 0.005 | [2] 0.072 | [3] 0.014 | [4] -0.017 | [5] -0.026 | [6] -0.004 | [7] -0.055 | [8] -0.046 | [9] 0.011 | [10] -0.008
